Experimental data: PubChem BioAssay AID504808 (Drosophila RNAi Screening Center, 2011)

- Screen: 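Genes whose loss lifts activity of an E2F-responsive reporter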 (primary screen)
- Cell system: Drosophila S2 cells
- Reagents: long dsRNA against Drosophila genes
- Measured: 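Firefly luciferase driven by E2F sites, normalised to Renilla luciferase on the same minimal promoter, measured by plate reader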
- Reading the numbers: E2F firefly: higher = more E2F reporter activity; Renilla normaliser: higher = more normaliser reporter signal
- Hit rule: 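a knock-down counted as active when the firefly/Renilla E2F signal rose above 50%, a threshold chosen arbitrarily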
In all, the deposit lists about 21,000 reagents; shown is a random part of those that have a named target and a result. Over the whole deposit, 18 (0.084%) are marked active. 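Raw counts without plate normalisation, one of two replicates; the ratio scores behind the calls were not deposited.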 Names joined by + are all predicted targets of the reagent. Not given: the amount of reagent, the time to read-out.

| predicted target | DRSC id | E2F firefly, rep 1 | Renilla normaliser, rep 1 | activity call |
| --- | --- | --- | --- | --- |
| MED27 (GeneID 40696) | DRSC12205 | 1.11e5 | 6197 | inactive |
| Ranbp16 (GeneID 118436) | DRSC20160 | 1.44e5 | 5644 | inactive |
| RpL24 (GeneID 34754) | DRSC03185 | 59639 | 118 | inactive |
| frac (GeneID 38850) | DRSC10867 | 74728 | 3691 | inactive |
| CG18659 (GeneID 35929) | DRSC06784 | 1.47e5 | 4878 | inactive |
| alphaTub85E (GeneID 41183) | DRSC16899 | 92242 | 5493 | inactive |
| Rab3-GAP (GeneID 34626) | DRSC02001 | 80953 | 3865 | inactive |
| Arp1 (GeneID 41566) | DRSC14118 | 1.52e5 | 6144 | inactive |
| CG3356 (GeneID 37876) | DRSC04358 | 96804 | 3827 | inactive |
| Tsen54 (GeneID 39397) | DRSC10527 | 1.31e5 | 7107 | inactive |
| Samuel (GeneID 34530) | DRSC02156 | 1.34e5 | 5132 | inactive |
| Samuel (GeneID 34530) | DRSC02401 | 1.48e5 | 4370 | inactive |
| Samuel (GeneID 34530) | DRSC02402 | 1.61e5 | 5280 | inactive |
| E(spl)m3-HLH (GeneID 43156) | DRSC16694 | 71017 | 4705 | inactive |
| z (GeneID 31230) | DRSC18855 | 1364 | 840 | inactive |
| aurB (GeneID 34504) | DRSC03548 | 56115 | 193 | inactive |
| CG4950 (GeneID 39783) | DRSC10463 | 1.53e5 | 7531 | inactive |
| CG17290 (GeneID 36938) | DRSC06662 | 1.92e5 | 4731 | inactive |
| prel (GeneID 35969) | DRSC07271 | 2850 | 203 | inactive |
| CG11475 (GeneID 37513) | DRSC04113 | 81142 | 3593 | inactive |
| tea (GeneID 36027) | DRSC06110 | 2549 | 196 | inactive |
| tea (GeneID 36027) | DRSC06236 | 1.48e5 | 5222 | inactive |
| CG14000 (GeneID 33820) | DRSC02332 | 1.38e5 | 4760 | inactive |
| CG13613 (GeneID 42910) | DRSC14616 | 1.01e5 | 5906 | inactive |
| Vsp37A (GeneID 31006) | DRSC18794 | 1.19e5 | 5645 | inactive |
| alka (GeneID 36145) | DRSC06136 | 1.47e5 | 5073 | inactive |
| stau (GeneID 37065) | DRSC07698 | 63917 | 3457 | inactive |
| CG13068 (GeneID 39784) | DRSC09951 | 1.54e5 | 7965 | inactive |
| CG15169 (GeneID 35161) | DRSC02470 | 96855 | 3937 | inactive |
| CG13700 (GeneID 40013) | DRSC10049 | 1.61e5 | 8668 | inactive |
| SERCA (GeneID 49297) | DRSC04600 | 77640 | 3482 | inactive |
| inc (GeneID 31110) | DRSC17954 | 1.27e5 | 6161 | inactive |
| inc (GeneID 31110) | DRSC18512 | 1862 | 836 | inactive |
| Kap3 (GeneID 32071) | DRSC19426 | 8062 | 676 | inactive |
| Prp3 (GeneID 40172) | DRSC10912 | 95450 | 7115 | inactive |
| CG12729 (GeneID 31515) | DRSC17884 | 37980 | 3740 | inactive |
| psh (GeneID 32832) | DRSC19990 | 1.60e5 | 6253 | inactive |
| mthl6 (GeneID 38839) | DRSC10234 | 95308 | 3955 | inactive |
| Patronin (GeneID 36978) | DRSC06756 | 1.53e5 | 5175 | inactive |
| Patronin (GeneID 36978) | DRSC06757 | 1.46e5 | 5283 | inactive |
| Patronin (GeneID 36978) | DRSC06994 | 1.33e5 | 5042 | inactive |
| Sec61beta (GeneID 46080) | DRSC07548 | 98850 | 3682 | inactive |
| Gmap (GeneID 32483) | DRSC19988 | 8034 | 800 | inactive |
| Gmap (GeneID 32483) | DRSC20057 | 1.41e5 | 6161 | inactive |
| Dsk (GeneID 45845) | DRSC12347 | 1.39e5 | 6827 | inactive |
| fend (GeneID 31843) | DRSC17601 | 83990 | 2547 | inactive |
| fend (GeneID 31843) | DRSC17867 | 98757 | 6200 | inactive |
| ATPsynCF6L (GeneID 38592) | DRSC08232 | 88826 | 3810 | inactive |
| CG5539 (GeneID 37766) | DRSC04510 | 99233 | 4079 | inactive |
| raskol (GeneID 32754) | DRSC19202 | 90403 | 3479 | inactive |
| raskol (GeneID 32754) | DRSC19731 | 1.64e5 | 6272 | inactive |
| raskol (GeneID 32754) | DRSC19964 | 1.54e5 | 6067 | inactive |
| raskol (GeneID 32754) | DRSC19967 | 93264 | 3636 | inactive |
| Ms (GeneID 44324) | DRSC16041 | 54184 | 3024 | inactive |
| CG9521 (GeneID 32414) | DRSC20196 | 2.29e5 | 6383 | inactive |
| CG30053 (GeneID 246419) | DRSC07260 | 93246 | 3282 | inactive |
| CG32182 (GeneID 317898) | DRSC09508 | 1.29e5 | 3978 | inactive |
| mkg-p + Tpt | DRSC10777 | 81992 | 3162 | inactive |
| TfAP-2 (GeneID 40398) | DRSC11601 | 1.18e5 | 5753 | inactive |
| CG14893 (GeneID 42023) | DRSC15015 | 1.07e5 | 5386 | inactive |
| slow (GeneID 38540) | DRSC08589 | 68052 | 3579 | inactive |
| slow (GeneID 38540) | DRSC08590 | 83337 | 3104 | inactive |
| Ugt37A1 (GeneID 35307) | DRSC02114 | 98762 | 3749 | inactive |
| Tudor-SN (GeneID 38045) | DRSC08581 | 72744 | 3567 | inactive |
| spirit (GeneID 31797) | DRSC18202 | 6898 | 708 | inactive |
| CG13868 (GeneID 37302) | DRSC06427 | 71420 | 3228 | inactive |
| Gfrl (GeneID 3346162) | DRSC15197 | 62557 | 3711 | inactive |
| Gfrl (GeneID 3346162) | DRSC15199 | 1.47e5 | 7911 | inactive |
| Gfrl (GeneID 3346162) | DRSC15565 | 65979 | 3014 | inactive |
| Gfrl (GeneID 3346162) | DRSC15719 | 1.28e5 | 7474 | inactive |
| ssp3 (GeneID 35149) | DRSC02669 | 1.06e5 | 4975 | inactive |
| ssp3 (GeneID 35149) | DRSC02670 | 1.02e5 | 3989 | inactive |
| Rexo5 (GeneID 38740) | DRSC10981 | 82459 | 4162 | inactive |
| CAH9 (GeneID 43264) | DRSC15963 | 1.08e5 | 5183 | inactive |
| CG33307 (GeneID 2768914) | DRSC01349 | 90945 | 5593 | inactive |
| CG14130 (GeneID 39335) | DRSC10134 | 64482 | 1655 | inactive |
| CG5746 (GeneID 42903) | DRSC15868 | 67713 | 3269 | inactive |
| Lrpprc2 (GeneID 31095) | DRSC18605 | 1707 | 1052 | inactive |
| CG15530 (GeneID 43589) | DRSC15067 | 1.26e5 | 6715 | inactive |
| amon (GeneID 43215) | DRSC13784 | 92490 | 2482 | inactive |
| amon (GeneID 43215) | DRSC16900 | 1.22e5 | 5844 | inactive |
| Sap47 (GeneID 41938) | DRSC16850 | 75511 | 5302 | inactive |
| CG7860 (GeneID 32488) | DRSC20060 | 8167 | 824 | inactive |
| yellow-h (GeneID 43779) | DRSC17141 | 1.11e5 | 5136 | inactive |

Sorted by “Renilla normaliser, rep 1” (descending): 13 of the entries above.
| predicted target | DRSC id | E2F firefly, rep 1 | Renilla normaliser, rep 1 | activity call |
| --- | --- | --- | --- | --- |
| Gfrl (GeneID 3346162) | DRSC15199 | 1.47e5 | 7911 | inactive |
| Gfrl (GeneID 3346162) | DRSC15719 | 1.28e5 | 7474 | inactive |
| TfAP-2 (GeneID 40398) | DRSC11601 | 1.18e5 | 5753 | inactive |
| CG14893 (GeneID 42023) | DRSC15015 | 1.07e5 | 5386 | inactive |
| ssp3 (GeneID 35149) | DRSC02669 | 1.06e5 | 4975 | inactive |
| Ugt37A1 (GeneID 35307) | DRSC02114 | 98762 | 3749 | inactive |
| Gfrl (GeneID 3346162) | DRSC15197 | 62557 | 3711 | inactive |
| slow (GeneID 38540) | DRSC08589 | 68052 | 3579 | inactive |
| Tudor-SN (GeneID 38045) | DRSC08581 | 72744 | 3567 | inactive |
| CG13868 (GeneID 37302) | DRSC06427 | 71420 | 3228 | inactive |
| slow (GeneID 38540) | DRSC08590 | 83337 | 3104 | inactive |
| Gfrl (GeneID 3346162) | DRSC15565 | 65979 | 3014 | inactive |
| spirit (GeneID 31797) | DRSC18202 | 6898 | 708 | inactive |
